Laboratory results reported in paper PMC4924727.
No constants are given. Whether binding was seen depends on the method and setting. Binding seen in cells or lysates may run through a third protein. Binding calls can cover weak binding; strength is not graded here.

Biological target: endogenous Mgl-1 (MDCK cells) (canine (endogenous in MDCK))
Test: co-IP; endogenous proteins of MDCK cell lysates; immunoprecipitation with anti-USP11 or anti-Mgl-1 antibody; also in cells transfected with RanBPM shRNA #1 and #2 (interaction decreased)

B1: endogenous USP11 (MDCK cells) (enzyme, UniProt Q01988 1-445)
chain: NSARADLCVALAKHTGMSPERMMVADVFSHRFYKIYQLEESLSSILDRDDIFIYEVSGRSAIGENSREDVVLPIYLRERTPARDYNNSYYGLMLFGHPLLVSVPRDRLSWDALYHILLYRLSRYVTRPSSDDEDDGDEKDIEDKDNIPKPGHVAGASSQDSGAGSGGAQLWSRRRKPAPVDNSPGPSHWPQRARRKHLFTLQTVNSNGTSDRSTFNEDTHAQPYIAIDWEPEMKKRYYDEVEAEGYVKHDCVGYVLKKAPVRLQECIELFTTVETLEKENPWFCPTCKQHQLATKKLDLWMLPETLIIHLKRFSYTKFSREKLDTLVEFPIRDLDFSEFVIKPQNESAPELYKYDLIAVSNHYGGLRDGHYTTFACNKDSGQSDYFDDNSVSPVTENQIESKAAYVLFYQRQDVARRLQPQPSSSDPPASPACGSPPNSEFMDVN
With B1 as the binder, how does the binding read?
The binding was “binds”.
